This assay has as its target phosphoglycerate mutase 1 (PGAM1), endogenous (human (endogenous in H2030)) (UniProt P18669). In words: co-IP; endogenous proteins; cells lysed in IP lysis buffer with protease and phosphatase inhibitors, lysates pre-cleared with protein A/G magnetic beads, primary antibodies or IgG controls overnight at 4°C, captured on protein A/G beads, Western blotting. (In western blotting, separated proteins are transferred to a membrane and probed.)

Sequences of proteins named here, by UniProt entry; tags and fusion partners are left off.
UniProt P18669: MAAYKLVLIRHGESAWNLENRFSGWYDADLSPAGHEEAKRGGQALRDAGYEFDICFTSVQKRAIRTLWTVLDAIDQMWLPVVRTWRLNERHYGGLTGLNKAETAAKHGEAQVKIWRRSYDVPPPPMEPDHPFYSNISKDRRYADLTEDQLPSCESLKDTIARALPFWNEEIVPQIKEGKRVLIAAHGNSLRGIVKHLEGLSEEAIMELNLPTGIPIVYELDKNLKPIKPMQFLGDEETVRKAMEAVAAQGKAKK
UniProt Q15386: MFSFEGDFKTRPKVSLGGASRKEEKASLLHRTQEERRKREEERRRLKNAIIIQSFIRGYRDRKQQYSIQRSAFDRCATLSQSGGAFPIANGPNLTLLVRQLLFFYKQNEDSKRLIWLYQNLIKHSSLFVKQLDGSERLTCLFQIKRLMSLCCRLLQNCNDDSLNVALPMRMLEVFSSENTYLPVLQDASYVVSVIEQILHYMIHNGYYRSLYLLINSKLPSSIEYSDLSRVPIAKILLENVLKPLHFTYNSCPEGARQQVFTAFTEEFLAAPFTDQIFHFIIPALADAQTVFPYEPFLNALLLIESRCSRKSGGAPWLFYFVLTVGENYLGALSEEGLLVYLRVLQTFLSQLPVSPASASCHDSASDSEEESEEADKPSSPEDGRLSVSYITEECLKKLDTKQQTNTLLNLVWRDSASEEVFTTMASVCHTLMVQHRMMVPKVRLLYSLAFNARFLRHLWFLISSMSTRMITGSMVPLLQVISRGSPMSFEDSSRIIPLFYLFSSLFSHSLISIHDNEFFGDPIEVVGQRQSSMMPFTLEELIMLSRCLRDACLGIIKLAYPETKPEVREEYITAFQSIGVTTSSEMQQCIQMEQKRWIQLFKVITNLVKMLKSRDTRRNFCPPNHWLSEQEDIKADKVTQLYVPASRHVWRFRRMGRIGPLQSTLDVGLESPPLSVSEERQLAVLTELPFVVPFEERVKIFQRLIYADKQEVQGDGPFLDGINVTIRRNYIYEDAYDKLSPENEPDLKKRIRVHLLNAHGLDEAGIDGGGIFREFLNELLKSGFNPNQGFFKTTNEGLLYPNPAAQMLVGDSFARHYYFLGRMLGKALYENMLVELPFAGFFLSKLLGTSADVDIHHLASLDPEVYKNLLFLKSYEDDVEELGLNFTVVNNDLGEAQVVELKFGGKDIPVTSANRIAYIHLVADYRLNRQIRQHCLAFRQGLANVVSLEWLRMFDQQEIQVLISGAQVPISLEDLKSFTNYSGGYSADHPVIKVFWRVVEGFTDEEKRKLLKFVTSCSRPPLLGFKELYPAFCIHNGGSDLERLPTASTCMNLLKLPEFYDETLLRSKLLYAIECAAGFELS

These are yes or no findings as the source states them, for the method shown. In cells and extracts the contact can be indirect. Some binding calls cover weakened binding; strength is not graded here.

With “E3 ubiquitin ligase UBE3C, endogenous (from UniProt Q15386 1-1083) (enzyme)”, the binding entry is on record as “binds”.

(Values after publication PMC11844280.)
